Reference: US20160264636A1, “PEPTIDE INHIBITORS OF TEAD/YAP-TAZ INTERACTION” (UNIVERSITE PIERRE ET MARIE CURIE (PARIS 6), priority 2013, published 2016)
For some assays here: At least one peptide structure holds a part that was inferred or is arguable (an end, a ring closure or a residue). For some assays here: At least one compound was matched to its structure with a doubt left. Peptide text beside a SMILES is read from it.

Legend:
[1] = test system: MP66 uveal melanoma cells; experiment: MTT cytotoxicity assay, MP66; assay type: cell-based, human; conditions: 25 μM, 72 h, relative to non-treated cells
Procedure: (§1) The cytotoxicity of penetrating peptides or chemotherapeutic agents, alone or in combination, was evaluated by the (3-(4,5-dimethylthiazol-2-yl)-2,5-diphenyltetrazolium bromide) tetrazolium (MTT) reduction assay. The cells were seeded in 96-well plates (100 μL/well) at a cell density defined from growth curves. After 24 hours of incubation, cells were treated with the peptides for 72 hours. The wells were rinsed two times with RPMI. After washing, 10 μl of stock MTT solution (5 mg/ml; MTT (SIGMA #M-2128) in PBS Dubecco's 1× without Ca^2+ and Mg^2+) was added to a final volume of 100 μl of culture medium. Cell lines were incubated for additional 4 hours at 37° C. under humid atmosphere with 5% (v/v) CO2. The formation of blue formazan crystals was detected under a microscope. An equal volume of 10% SDS (MERCK, #926.238) in 10 mM HCl was added to each well and the plate was placed in the incubator overnight to dissolve formazan crystals. The plates were mixed to ensure complete solubilisation of formazan crystals and absorbance was measured at 570 nm and 620 nm. The percentage of viable cells was estimated using the formula: % cell viability=ΔOD(570-620) treated/ΔOD(570-620)control×100. […]
All the uveal melanoma cell lines were treated for 72 h with different concentrations of the peptides TAZ, “LV”, YAP and TEAD (SEQ ID NO: 35, 36, 37). Cytotoxicity was analysed as described in example 2. […]

SKOV3 cells = experiment: MTT cytotoxicity assay, SKOV3; assay type: cell-based; conditions: Table VIII, 72 h, 25% cell death
Procedure: as §1, with “nm.” for “nm. The percentage of viable cells was estimated using the formula: % cell viability=ΔOD(570-620) treated/ΔOD(570-620)control×100.”
(§2) Cell-penetrating peptides (CPPs) comprising the binding site of TEAD to TAZ or YAP or of YAP to TEAD (TAZ, TEAD and YAP peptides, respectively) were chemically synthesized. […] Cytotoxicity was analysed as described in example 2.

ES2 cells = experiment: MTT cytotoxicity assay, ES2; assay type: cell-based; conditions: Table VIII, 72 h, 25% cell death
Procedure: as §1, with “nm.” for “nm. The percentage of viable cells was estimated using the formula: % cell viability=ΔOD(570-620) treated/ΔOD(570-620)control×100.”
as §2

OVCAR8 cells = experiment: MTT cytotoxicity assay, OVCAR8; assay type: cell-based; conditions: Table VIII, 72 h, 25% cell death
Procedure: as §1, with “nm.” for “nm. The percentage of viable cells was estimated using the formula: % cell viability=ΔOD(570-620) treated/ΔOD(570-620)control×100.”
as §2

H1975 cells = assay type: cell-based; conditions: Table II, 72 h, MTT, 25% cell death
Procedure: (§3) H1650, H1975, H1299, A549 cell lines were cultured in DMEM medium supplemented with 10% of FCS. HBEC cell lines (wt and Ras V12) were cultured in KSFM supplemented with growth factors. All the cell lines come from human non small cell lung cancer (NSCLC).
(§4) The cytotoxicity of penetrating peptides or chemotherapeutic agents, alone or in combination, was evaluated by the (3-(4,5-dimethylthiazol-2-yl)-2,5-diphenyltetrazolium bromide) tetrazolium (MTT) reduction assay. The cells were seeded in 96-well plates (100 μL/well) at a cell density defined from growth curves. After 24 hours of incubation, cells were treated with the peptides for 72 hours. The wells were rinsed two times with RPMI. After washing, 10 μl of stock MTT solution (5 mg/ml; MTT (SIGMA #M-2128) in PBS Dubecco's 1× without Ca^2+ and Mg^2+) was added to a final volume of 100 μl of culture medium. Cell lines were incubated for additional 4 hours at 37° C. under humid atmosphere with 5% (v/v) CO2. The formation of blue formazan crystals was detected under a microscope. An equal volume of 10% SDS (MERCK, #926.238) in 10 mM HCl was added to each well and the plate was placed in the incubator overnight to dissolve formazan crystals. The plates were mixed to ensure complete solubilisation of formazan crystals and absorbance was measured at 570 nm and 620 nm. The percentage of viable cells was estimated using the formula: % cell viability=ΔOD(570-620) treated/ΔOD(570-620)control×100.
(§5) Cell-penetrating peptides (CPPs) comprising the binding site of TEAD to TAZ or YAP or of YAP to TEAD (TAZ, TEAD and YAP peptides, respectively) were chemically synthesized. The effect of the peptides on cell viability was assayed on several human non small cell lung cancer (NSCLC) cell lines. All the lung cancer cell lines were treated for 72 h with different peptide concentrations. Cytotoxicity was analysed as described in Materials and Methods.

HBEC wt cells = assay type: cell-based; conditions: Table II, 72 h, MTT, 25% cell death
Procedure: as §3, §4, §5

H1299 cells = assay type: cell-based; conditions: Table II, 72 h, MTT, 25% cell death
Procedure: as §3, §4, §5

A549 cells = assay type: cell-based; conditions: Table II, 72 h, MTT, 25% cell death
Procedure: as §3, §4, §5

H1650 cells = assay type: cell-based; conditions: Table II, 72 h, MTT, 25% cell death
Procedure: as §3, §4, §5

HBEC RasV12 cells = assay type: cell-based; conditions: Table II, 72 h, MTT, 25% cell death
Procedure: as §3, §4, §5

IGROV-1 cells = experiment: MTT cytotoxicity assay, IGROV; assay type: cell-based; conditions: Table VIII, 72 h, 25% cell death
Procedure: as §1, with “nm.” for “nm. The percentage of viable cells was estimated using the formula: % cell viability=ΔOD(570-620) treated/ΔOD(570-620)control×100.”
as §2

| SMILES | viability [1] | Letal Dose (μM) LD25 (SKOV3 cells) [µM] | Letal Dose (μM) LD25 (ES2 cells) [µM] | Letal Dose (μM) LD25 (OVCAR8 cells) [µM] | Letal Dose (μM) LD25 (H1975 cells) [µM] | Letal Dose (μM) LD25 (HBEC wt cells) [µM] | Letal Dose (μM) LD25 (H1299 cells) [µM] | Letal Dose (μM) LD25 (A549 cells) [µM] | Letal Dose (μM) LD25 (H1650 cells) [µM] | Letal Dose (μM) LD25 (HBEC RasV12 cells) [µM] | Letal Dose (μM) LD25 (IGROV-1 cells) [µM] |
| --- | --- | --- | --- | --- | --- | --- | --- | --- | --- | --- | --- |
| CC[C@H](C)[C@H](NC(=O)[C@H](CCCCN)NC(=O)[C@H](CCCCN)NC(=O)[C@H](CCCCN)NC(=O)[C@H](CCCCN)NC(=O)[C@@H](N)C(C)C)C(=O)N[C@@H](CCCCN)C(=O)N[C@@H](C)C(=O)N[C@@H](CCC(=O)O)C(=O)N[C@H](C(=O)N[C@@H](CCCCN)C(=O)N[C@H](C(=O)N1CCC[C@H]1C(=O)N1CCC[C@H]1C(=O)N[C@@H](Cc1c[nH]cn1)C(=O)N[C@@H](C)C(=O)N[C@@H](Cc1ccccc1)C(=O)N[C@@H](Cc1ccccc1)C(=O)N[C@@H](CC(C)C)C(=O)N[C@H](C(=O)N[C@@H](CCCCN)C(=O)N[C@@H](Cc1ccccc1)C(=O)N[C@@H](Cc1c[nH]c2ccccc12)C(=O)N[C@@H](C)C(=O)N[C@@H](CC(=O)O)C(=O)N[C@@H](CC(C)C)C(=O)N[C@@H](CC(N)=O)C(=O)N[C@@H](Cc1c[nH]c2ccccc12)C(=O)NCC(=O)N1CCC[C@H]1C(=O)N[C@@H](CO)C(=O)NCC(=O)N[C@@H](CCC(=O)O)C(=O)N[C@@H](CCC(=O)O)C(=O)N[C@@H](C)C(=O)NCC(=O)N[C@@H](C)C(=O)NCC(=O)O)C(C)C)[C@@H](C)CC)[C@@H](C)CC [TAZ “LV”] (H-VKKKKIKAEIKIPPHAFFLVKFWADLNWGPSGEEAGAG-OH; N-terminus and C-terminus assumed) | about 20% | – | – | – | – | – | – | – | – | – | – |
| CC[C@H](C)[C@H](NC(=O)[C@H](CCCCN)NC(=O)[C@H](CCCCN)NC(=O)[C@H](CCCCN)NC(=O)[C@H](CCCCN)NC(=O)[C@@H](N)C(C)C)C(=O)N[C@@H](CCCCN)C(=O)N[C@@H](C)C(=O)N[C@@H](CCC(=O)O)C(=O)N[C@H](C(=O)N[C@@H](CCCCN)C(=O)N[C@H](C(=O)N[C@@H](CCCNC(=N)N)C(=O)N[C@@H](CC(C)C)C(=O)N[C@@H](CCC(N)=O)C(=O)N[C@@H](CC(C)C)C(=O)N[C@H](C(=O)N[C@@H](CCC(=O)O)C(=O)N[C@@H](Cc1ccccc1)C(=O)N[C@@H](CO)C(=O)N[C@@H](C)C(=O)N[C@@H](Cc1ccccc1)C(=O)N[C@H](C(=O)N[C@@H](CCC(=O)O)C(=O)N1CCC[C@H]1C(=O)N1CCC[C@H]1C(=O)N[C@@H](CC(=O)O)C(=O)N[C@@H](C)C(=O)N[C@H](C(=O)N[C@@H](CC(=O)O)C(=O)O)C(C)C)C(C)C)C(C)C)[C@@H](C)CC)[C@@H](C)CC [TEAD] (H-VKKKKIKAEIKIRLQLVEFSAFVEPPDAVD-OH; N-terminus and C-terminus assumed) | – | 6 | >100 | >100 | 6 | >100 | >100 | >100 | 5 | >100 | >100 |
